Article PMC9522936, “Regain flood adaptation in rice through a 14-3-3 protein OsGF14h” (Nature Communications, 2022)
Results are given in words; binding and its absence hold for the method and conditions named. For some assays here: Binding seen in cells or lysates may run through a third protein. Some entries that bind do so weakly or less than the wild type. For some assays here: Sequences can lack the tags named with a protein.

T1: OsGF14h^SN9816-GFP (pBWA(V)HS-OsGF14h-GFP) (rice (Oryza sativa), japonica variety Shennong9816) (UniProt Q2R1D5)
T1 sequence: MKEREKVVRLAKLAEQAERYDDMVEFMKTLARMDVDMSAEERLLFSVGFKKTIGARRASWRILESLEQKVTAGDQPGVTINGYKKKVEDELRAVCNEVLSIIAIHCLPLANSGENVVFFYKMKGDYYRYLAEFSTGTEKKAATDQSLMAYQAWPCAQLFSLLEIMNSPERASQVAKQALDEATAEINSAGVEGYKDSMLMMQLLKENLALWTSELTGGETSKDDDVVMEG

T2: OsGF14h^SN9816 (pGBKT7-OsGF14h, two-hybrid bait) (rice (Oryza sativa), japonica variety Shennong9816) (UniProt Q2R1D5)
T2 sequence: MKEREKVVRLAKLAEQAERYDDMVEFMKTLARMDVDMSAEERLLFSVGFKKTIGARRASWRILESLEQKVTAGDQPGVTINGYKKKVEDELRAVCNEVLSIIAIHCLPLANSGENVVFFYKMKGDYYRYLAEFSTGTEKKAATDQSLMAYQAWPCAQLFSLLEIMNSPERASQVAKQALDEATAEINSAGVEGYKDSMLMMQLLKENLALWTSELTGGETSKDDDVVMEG

T3: GST-OsVP1 (rice) (UniProt P37398)
T3 sequence: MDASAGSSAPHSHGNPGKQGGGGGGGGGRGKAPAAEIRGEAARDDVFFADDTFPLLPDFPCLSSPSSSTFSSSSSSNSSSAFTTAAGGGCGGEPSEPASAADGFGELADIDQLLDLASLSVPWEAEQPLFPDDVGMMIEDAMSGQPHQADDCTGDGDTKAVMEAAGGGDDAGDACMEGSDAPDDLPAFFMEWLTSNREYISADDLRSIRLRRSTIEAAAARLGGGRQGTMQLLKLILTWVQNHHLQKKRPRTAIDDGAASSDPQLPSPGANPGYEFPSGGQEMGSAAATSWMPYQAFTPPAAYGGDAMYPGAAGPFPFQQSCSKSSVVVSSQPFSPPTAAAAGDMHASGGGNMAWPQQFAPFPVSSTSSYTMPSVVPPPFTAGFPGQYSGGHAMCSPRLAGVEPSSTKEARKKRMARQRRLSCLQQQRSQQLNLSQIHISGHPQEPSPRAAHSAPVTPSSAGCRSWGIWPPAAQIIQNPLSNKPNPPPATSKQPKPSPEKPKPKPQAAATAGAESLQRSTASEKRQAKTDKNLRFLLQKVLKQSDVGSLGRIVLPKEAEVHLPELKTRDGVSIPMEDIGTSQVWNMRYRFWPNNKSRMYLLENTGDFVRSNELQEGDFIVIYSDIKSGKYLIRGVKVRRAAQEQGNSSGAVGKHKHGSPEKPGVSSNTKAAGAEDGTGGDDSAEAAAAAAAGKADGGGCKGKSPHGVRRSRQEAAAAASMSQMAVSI


What was measured:
[1] = biological target: T1, OsGF14h^SN9816-GFP (pBWA(V)HS-OsGF14h-GFP) (rice (Oryza sativa), japonica variety Shennong9816); test: co-IP; OsGF14h-GFP and 3×FLAG-HOX3 or 3×FLAG-VP1 co-expressed in N. benthamiana leaves; GFP-Trap agarose 2 h; washes in 10 mM Tris-HCl pH 8.0, 150 mM NaCl, 0.5 mM EDTA, 2 mM DTT, 0.1% NP-40; anti-FLAG blot
[2] = biological target: T2, OsGF14h^SN9816 (pGBKT7-OsGF14h, two-hybrid bait) (rice (Oryza sativa), japonica variety Shennong9816); test: two-hybrid; pairwise, pGBKT7-OsGF14h with pGADT7-OsHOX3 or pGADT7-VP1 in strain Y2H Gold; growth on SD/-Leu-Trp-His-Ade
GST-OsVP1 (rice) = biological target: T3, GST-OsVP1 (rice); test: pull-down; GST-OsHOX3 or GST-OsVP1 as bait on GST beads, equal quantities of recombinant proteins in GST pull-down buffer at 4 °C overnight, His-OsGF14h detected by anti-His; both purified

binding [1]	binding [2]	Binder	further results
binds		3×FLAG-VP1 (pBWA(V)HS-3×FLAG-VP1) (protein, UniProt P37398 1-727) MDASAGSSAPHSHGNPGKQGGGGGGGGGRGKAPAAEIRGEAARDDVFFADDTFPLLPDFPCLSSPSSSTFSSSSSSNSSSAFTTAAGGGCGGEPSEPASAADGFGELADIDQLLDLASLSVPWEAEQPLFPDDVGMMIEDAMSGQPHQADDCTGDGDTKAVMEAAGGGDDAGDACMEGSDAPDDLPAFFMEWLTSNREYISADDLRSIRLRRSTIEAAAARLGGGRQGTMQLLKLILTWVQNHHLQKKRPRTAIDDGAASSDPQLPSPGANPGYEFPSGGQEMGSAAATSWMPYQAFTPPAAYGGDAMYPGAAGPFPFQQSCSKSSVVVSSQPFSPPTAAAAGDMHASGGGNMAWPQQFAPFPVSSTSSYTMPSVVPPPFTAGFPGQYSGGHAMCSPRLAGVEPSSTKEARKKRMARQRRLSCLQQQRSQQLNLSQIHISGHPQEPSPRAAHSAPVTPSSAGCRSWGIWPPAAQIIQNPLSNKPNPPPATSKQPKPSPEKPKPKPQAAATAGAESLQRSTASEKRQAKTDKNLRFLLQKVLKQSDVGSLGRIVLPKEAEVHLPELKTRDGVSIPMEDIGTSQVWNMRYRFWPNNKSRMYLLENTGDFVRSNELQEGDFIVIYSDIKSGKYLIRGVKVRRAAQEQGNSSGAVGKHKHGSPEKPGVSSNTKAAGAEDGTGGDDSAEAAAAAAAGKADGGGCKGKSPHGVRRSRQEAAAAASMSQMAVSI	
	binds	OsVP1 (pGADT7-VP1, two-hybrid prey) (protein, UniProt P37398 1-727) MDASAGSSAPHSHGNPGKQGGGGGGGGGRGKAPAAEIRGEAARDDVFFADDTFPLLPDFPCLSSPSSSTFSSSSSSNSSSAFTTAAGGGCGGEPSEPASAADGFGELADIDQLLDLASLSVPWEAEQPLFPDDVGMMIEDAMSGQPHQADDCTGDGDTKAVMEAAGGGDDAGDACMEGSDAPDDLPAFFMEWLTSNREYISADDLRSIRLRRSTIEAAAARLGGGRQGTMQLLKLILTWVQNHHLQKKRPRTAIDDGAASSDPQLPSPGANPGYEFPSGGQEMGSAAATSWMPYQAFTPPAAYGGDAMYPGAAGPFPFQQSCSKSSVVVSSQPFSPPTAAAAGDMHASGGGNMAWPQQFAPFPVSSTSSYTMPSVVPPPFTAGFPGQYSGGHAMCSPRLAGVEPSSTKEARKKRMARQRRLSCLQQQRSQQLNLSQIHISGHPQEPSPRAAHSAPVTPSSAGCRSWGIWPPAAQIIQNPLSNKPNPPPATSKQPKPSPEKPKPKPQAAATAGAESLQRSTASEKRQAKTDKNLRFLLQKVLKQSDVGSLGRIVLPKEAEVHLPELKTRDGVSIPMEDIGTSQVWNMRYRFWPNNKSRMYLLENTGDFVRSNELQEGDFIVIYSDIKSGKYLIRGVKVRRAAQEQGNSSGAVGKHKHGSPEKPGVSSNTKAAGAEDGTGGDDSAEAAAAAAAGKADGGGCKGKSPHGVRRSRQEAAAAASMSQMAVSI	
binds		3×FLAG-HOX3 (pBWA(V)HS-3×FLAG-HOX3) (protein, UniProt Q0JKX1 1-229) MMGATSPSGLELTMAVPGLSSSGSEGAGCNNNNAGGGCNMRDLDINQPASGGEEEEFPMGSVEEDEEERGVGGPHRPKKLRLSKEQSRLLEESFRLNHTLTPKQKEALAIKLKLRPRQVEVWFQNRRARTKLKQTEMECEYLKRCFGSLTEENRRLQREVEELRAMRVAPPTVLSPHTRQPLPASALTMCPRCERITAATGPPAVRPPPSSAAAAAPSPFHPRRPSAAF	
	binds	OsHOX3 (pGADT7-OsHOX3, two-hybrid prey) (protein, UniProt Q0JKX1 1-229) MMGATSPSGLELTMAVPGLSSSGSEGAGCNNNNAGGGCNMRDLDINQPASGGEEEEFPMGSVEEDEEERGVGGPHRPKKLRLSKEQSRLLEESFRLNHTLTPKQKEALAIKLKLRPRQVEVWFQNRRARTKLKQTEMECEYLKRCFGSLTEENRRLQREVEELRAMRVAPPTVLSPHTRQPLPASALTMCPRCERITAATGPPAVRPPPSSAAAAAPSPFHPRRPSAAF	
		His-OsGF14h^SN9816 (protein, UniProt Q2R1D5 1-230) MKEREKVVRLAKLAEQAERYDDMVEFMKTLARMDVDMSAEERLLFSVGFKKTIGARRASWRILESLEQKVTAGDQPGVTINGYKKKVEDELRAVCNEVLSIIAIHCLPLANSGENVVFFYKMKGDYYRYLAEFSTGTEKKAATDQSLMAYQAWPCAQLFSLLEIMNSPERASQVAKQALDEATAEINSAGVEGYKDSMLMMQLLKENLALWTSELTGGETSKDDDVVMEG	binding (GST-OsVP1 (rice)): binds
